# Measurements as given in PubChem BioAssay (EPA / NIEHS).
# The chains behind the UniProt entries cited, without tags or fusion partners. Where a name states a change or a piece, a line headed by the entry shows the natural chain unless it says otherwise.
# UniProt P56817: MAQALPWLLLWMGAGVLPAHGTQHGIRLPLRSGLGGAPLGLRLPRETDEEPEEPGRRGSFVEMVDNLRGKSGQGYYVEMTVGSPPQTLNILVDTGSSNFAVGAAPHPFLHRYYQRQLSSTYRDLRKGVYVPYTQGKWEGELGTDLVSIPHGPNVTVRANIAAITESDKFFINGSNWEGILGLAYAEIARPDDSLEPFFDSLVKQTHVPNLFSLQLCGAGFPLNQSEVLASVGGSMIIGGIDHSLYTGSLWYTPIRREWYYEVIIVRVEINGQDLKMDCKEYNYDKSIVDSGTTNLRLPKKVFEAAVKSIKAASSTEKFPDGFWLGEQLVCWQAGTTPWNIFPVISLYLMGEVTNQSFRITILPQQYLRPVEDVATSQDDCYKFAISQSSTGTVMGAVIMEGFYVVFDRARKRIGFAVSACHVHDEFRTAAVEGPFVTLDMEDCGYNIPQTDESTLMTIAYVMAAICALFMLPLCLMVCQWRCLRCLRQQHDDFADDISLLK
# UniProt P03372, whole entry, looked up: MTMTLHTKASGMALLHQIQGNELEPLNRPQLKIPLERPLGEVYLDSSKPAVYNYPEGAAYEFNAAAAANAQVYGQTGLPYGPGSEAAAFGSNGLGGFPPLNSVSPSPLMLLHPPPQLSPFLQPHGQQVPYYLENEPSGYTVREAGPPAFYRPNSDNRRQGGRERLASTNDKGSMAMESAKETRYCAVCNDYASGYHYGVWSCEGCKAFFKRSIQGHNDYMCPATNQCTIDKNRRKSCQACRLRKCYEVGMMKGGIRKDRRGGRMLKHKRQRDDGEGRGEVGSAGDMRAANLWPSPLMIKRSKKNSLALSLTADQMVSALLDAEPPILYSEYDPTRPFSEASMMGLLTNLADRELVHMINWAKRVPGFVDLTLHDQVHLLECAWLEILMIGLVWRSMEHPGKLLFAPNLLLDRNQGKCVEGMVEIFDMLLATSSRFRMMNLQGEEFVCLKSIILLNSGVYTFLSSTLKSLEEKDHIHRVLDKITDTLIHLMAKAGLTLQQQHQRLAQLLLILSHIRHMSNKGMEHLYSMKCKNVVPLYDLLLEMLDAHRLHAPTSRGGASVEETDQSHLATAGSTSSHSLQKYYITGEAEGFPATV
# UniProt P04798: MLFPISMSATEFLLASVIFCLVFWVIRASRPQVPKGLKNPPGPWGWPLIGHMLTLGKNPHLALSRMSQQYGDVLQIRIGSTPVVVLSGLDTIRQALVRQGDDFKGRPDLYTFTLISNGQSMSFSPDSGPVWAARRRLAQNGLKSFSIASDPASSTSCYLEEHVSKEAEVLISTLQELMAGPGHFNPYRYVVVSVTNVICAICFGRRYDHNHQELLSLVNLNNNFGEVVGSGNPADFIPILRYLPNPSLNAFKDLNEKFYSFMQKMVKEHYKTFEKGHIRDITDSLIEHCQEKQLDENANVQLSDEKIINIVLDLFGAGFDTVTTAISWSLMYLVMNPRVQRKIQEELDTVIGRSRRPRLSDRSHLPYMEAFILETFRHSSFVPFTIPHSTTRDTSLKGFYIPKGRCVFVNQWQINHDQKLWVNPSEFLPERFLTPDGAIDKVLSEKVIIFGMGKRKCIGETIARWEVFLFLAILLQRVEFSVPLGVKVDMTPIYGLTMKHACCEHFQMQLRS
# UniProt Q13131: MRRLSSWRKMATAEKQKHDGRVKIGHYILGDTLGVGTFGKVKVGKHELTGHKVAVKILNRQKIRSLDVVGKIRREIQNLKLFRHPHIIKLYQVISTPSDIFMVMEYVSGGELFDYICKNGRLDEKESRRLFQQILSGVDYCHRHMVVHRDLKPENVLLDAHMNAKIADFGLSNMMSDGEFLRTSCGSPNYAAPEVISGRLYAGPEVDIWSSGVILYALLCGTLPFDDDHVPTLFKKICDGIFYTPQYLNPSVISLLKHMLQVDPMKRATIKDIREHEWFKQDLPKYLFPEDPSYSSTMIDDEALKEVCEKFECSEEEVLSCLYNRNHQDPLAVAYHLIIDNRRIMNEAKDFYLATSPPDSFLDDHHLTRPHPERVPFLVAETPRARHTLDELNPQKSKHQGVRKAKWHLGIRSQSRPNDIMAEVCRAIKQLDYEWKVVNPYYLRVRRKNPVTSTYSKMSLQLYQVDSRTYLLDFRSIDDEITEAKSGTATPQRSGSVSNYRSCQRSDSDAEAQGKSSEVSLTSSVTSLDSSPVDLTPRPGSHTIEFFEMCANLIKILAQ
# UniProt O75582, whole entry, looked up: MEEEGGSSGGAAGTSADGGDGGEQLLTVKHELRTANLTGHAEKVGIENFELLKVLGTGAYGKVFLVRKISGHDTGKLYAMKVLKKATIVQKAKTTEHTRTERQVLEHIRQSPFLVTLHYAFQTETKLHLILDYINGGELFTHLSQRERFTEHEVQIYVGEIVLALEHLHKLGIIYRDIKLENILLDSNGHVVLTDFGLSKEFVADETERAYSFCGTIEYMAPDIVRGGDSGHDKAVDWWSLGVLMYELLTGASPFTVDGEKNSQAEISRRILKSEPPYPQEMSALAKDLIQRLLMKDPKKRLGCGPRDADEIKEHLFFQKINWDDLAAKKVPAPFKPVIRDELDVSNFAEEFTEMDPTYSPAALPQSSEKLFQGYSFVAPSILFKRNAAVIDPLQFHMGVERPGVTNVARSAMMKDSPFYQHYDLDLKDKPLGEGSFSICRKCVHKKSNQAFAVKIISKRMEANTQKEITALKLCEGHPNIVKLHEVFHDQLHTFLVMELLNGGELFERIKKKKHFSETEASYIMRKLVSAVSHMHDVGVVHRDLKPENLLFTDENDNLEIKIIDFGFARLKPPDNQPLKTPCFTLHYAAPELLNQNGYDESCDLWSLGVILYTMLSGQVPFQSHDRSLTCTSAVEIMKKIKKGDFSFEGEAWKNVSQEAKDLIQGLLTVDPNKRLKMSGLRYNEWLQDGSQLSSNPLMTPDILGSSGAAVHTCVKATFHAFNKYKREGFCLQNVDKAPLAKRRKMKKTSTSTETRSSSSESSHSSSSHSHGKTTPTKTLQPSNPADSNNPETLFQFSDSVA
# UniProt P31645, whole entry, looked up: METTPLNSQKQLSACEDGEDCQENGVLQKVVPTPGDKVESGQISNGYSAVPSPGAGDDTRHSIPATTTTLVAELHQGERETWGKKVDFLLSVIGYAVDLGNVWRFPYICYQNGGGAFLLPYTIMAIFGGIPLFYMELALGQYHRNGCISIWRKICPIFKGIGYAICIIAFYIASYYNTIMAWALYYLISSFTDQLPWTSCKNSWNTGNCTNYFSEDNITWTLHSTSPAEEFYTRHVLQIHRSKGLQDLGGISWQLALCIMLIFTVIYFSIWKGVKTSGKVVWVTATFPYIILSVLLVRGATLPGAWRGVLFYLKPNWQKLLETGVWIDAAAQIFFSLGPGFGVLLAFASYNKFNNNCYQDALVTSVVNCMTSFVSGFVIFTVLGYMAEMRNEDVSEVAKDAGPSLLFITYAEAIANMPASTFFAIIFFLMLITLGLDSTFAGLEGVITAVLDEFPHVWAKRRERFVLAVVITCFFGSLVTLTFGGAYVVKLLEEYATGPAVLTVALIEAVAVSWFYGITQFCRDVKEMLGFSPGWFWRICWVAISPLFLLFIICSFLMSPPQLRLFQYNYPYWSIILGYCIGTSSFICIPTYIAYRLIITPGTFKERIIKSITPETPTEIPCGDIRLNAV
# UniProt Q98867: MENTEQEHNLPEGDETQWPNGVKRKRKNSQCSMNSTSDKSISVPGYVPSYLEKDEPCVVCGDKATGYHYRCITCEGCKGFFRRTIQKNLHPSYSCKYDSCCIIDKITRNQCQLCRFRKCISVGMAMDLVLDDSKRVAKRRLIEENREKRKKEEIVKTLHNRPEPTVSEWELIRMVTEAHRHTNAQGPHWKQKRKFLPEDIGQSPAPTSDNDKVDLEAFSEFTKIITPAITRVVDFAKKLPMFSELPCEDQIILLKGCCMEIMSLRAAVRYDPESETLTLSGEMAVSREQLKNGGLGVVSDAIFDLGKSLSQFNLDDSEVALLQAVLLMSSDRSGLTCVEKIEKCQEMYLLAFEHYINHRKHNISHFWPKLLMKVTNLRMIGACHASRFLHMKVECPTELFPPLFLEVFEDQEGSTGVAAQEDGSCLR
# UniProt P48730: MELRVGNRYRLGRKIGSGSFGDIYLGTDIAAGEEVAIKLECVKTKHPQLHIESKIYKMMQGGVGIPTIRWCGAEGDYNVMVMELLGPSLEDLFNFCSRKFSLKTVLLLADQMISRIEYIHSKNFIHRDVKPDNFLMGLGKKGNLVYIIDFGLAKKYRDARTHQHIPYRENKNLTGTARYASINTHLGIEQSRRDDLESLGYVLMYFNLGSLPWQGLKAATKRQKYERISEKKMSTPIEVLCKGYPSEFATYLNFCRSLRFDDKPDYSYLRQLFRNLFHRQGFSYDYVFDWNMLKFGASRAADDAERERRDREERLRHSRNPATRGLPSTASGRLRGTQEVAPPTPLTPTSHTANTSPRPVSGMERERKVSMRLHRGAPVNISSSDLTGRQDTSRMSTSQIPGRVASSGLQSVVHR
# UniProt P08684, whole entry, looked up: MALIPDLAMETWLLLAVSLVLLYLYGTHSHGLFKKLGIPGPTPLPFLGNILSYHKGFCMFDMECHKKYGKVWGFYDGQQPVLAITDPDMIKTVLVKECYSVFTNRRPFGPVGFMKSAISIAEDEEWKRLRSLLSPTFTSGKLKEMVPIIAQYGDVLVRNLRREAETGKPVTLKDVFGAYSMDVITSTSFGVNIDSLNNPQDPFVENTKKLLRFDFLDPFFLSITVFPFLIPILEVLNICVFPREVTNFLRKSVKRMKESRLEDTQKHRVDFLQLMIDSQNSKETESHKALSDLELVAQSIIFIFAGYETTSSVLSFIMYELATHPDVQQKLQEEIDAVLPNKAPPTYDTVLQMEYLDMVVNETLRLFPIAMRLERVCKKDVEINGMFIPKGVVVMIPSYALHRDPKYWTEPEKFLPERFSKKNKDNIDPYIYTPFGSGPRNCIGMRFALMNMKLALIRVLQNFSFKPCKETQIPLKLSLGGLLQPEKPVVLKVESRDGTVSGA
# UniProt P06213, whole entry, looked up: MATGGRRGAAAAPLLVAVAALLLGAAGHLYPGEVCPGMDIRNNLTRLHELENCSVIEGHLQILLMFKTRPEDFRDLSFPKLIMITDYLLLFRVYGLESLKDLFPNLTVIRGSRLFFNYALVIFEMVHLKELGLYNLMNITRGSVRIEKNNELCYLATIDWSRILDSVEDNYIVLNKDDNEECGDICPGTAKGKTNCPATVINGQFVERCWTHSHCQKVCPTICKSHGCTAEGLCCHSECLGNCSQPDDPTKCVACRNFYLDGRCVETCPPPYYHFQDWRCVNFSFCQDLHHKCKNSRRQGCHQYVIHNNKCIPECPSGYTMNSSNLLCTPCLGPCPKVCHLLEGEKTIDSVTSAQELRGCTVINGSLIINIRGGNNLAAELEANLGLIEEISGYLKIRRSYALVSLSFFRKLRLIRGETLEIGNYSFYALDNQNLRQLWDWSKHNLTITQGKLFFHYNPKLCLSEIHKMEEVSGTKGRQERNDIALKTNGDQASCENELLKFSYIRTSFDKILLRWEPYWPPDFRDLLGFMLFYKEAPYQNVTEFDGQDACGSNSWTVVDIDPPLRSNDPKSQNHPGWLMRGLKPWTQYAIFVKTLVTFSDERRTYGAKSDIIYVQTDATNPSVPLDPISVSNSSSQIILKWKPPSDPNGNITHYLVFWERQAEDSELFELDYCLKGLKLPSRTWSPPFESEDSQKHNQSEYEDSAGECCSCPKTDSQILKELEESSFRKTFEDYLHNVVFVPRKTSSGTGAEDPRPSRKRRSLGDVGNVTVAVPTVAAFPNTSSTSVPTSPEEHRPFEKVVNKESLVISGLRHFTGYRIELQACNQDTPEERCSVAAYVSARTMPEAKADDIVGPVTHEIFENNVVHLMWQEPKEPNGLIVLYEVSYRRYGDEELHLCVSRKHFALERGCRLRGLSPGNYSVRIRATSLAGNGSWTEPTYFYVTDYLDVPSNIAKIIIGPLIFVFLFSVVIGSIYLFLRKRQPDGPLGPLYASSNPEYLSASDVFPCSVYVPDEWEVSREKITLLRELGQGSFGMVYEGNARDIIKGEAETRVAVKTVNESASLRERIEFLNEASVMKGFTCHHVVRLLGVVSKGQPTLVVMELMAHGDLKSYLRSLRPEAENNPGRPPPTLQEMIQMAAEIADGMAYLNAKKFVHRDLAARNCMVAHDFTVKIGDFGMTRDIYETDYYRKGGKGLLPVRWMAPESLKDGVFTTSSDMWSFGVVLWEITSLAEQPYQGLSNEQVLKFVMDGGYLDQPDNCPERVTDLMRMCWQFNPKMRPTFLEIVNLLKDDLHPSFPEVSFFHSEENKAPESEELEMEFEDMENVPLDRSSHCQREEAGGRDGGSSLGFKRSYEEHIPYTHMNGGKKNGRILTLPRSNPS
# “And” between values parts separate entries of the source, which are not always exact repeats. Equal values may be shown once. Inconclusive results, whose numbers are uncertain, are shown with a selection of clear calls. For part of these data: Potencies beside an inconclusive call are fits to weak or partial responses and may not hold up. The source made the active and inactive calls. The calls were made as follows: active = hit-call score of the fitted dose curve at least 0.9, where 1 is the maximum; inconclusive = response in the unintended direction; inactive = score below 0.9.
# How the values were obtained:
# [1] = NVS_IC_rCaBTZCHL: NovaScreen (NVS) Ion Channel Assay for Calcium Channel, Type L, Benzothiazepine Site (CaBTZCHL) (AID 2283337)
# Summary of the method: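 Radioligand binding to the benzothiazepine site of L-type Ca channels in rat cortical membranes (cell-free), 1.5 h after dosing; filter-based scintillation counting. Loss of signal relative to DMSO baseline; primary single-concentration screen at 25 uM, actives then run in concentration series.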
# [2] = molecular target: human Beta-secretase (BACE), BACE1 (gene 23621) (UniProt P56817); experiment: NVS_ENZ_hBACE: NovaScreen (NVS) Enzymatic Assay for human Beta-secretase (BACE) (AID 2283140);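 also: hits are inhibitors that reduce fluorescent substrate signal versus DMSO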
# Summary of the method: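 Cell-free fluorescence-intensity assay of recombinant BACE1 expressed in SF9 cells, read 1 hour after dosing. Loss of signal indicates reduced protease activity, fitted relative to DMSO negative control. Primary screen at 25 uM in duplicate; actives followed in concentration series.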
# [3] = molecular target: Estrogen receptor (Homo sapiens) (UniProt P03372); experiment: CCTE_Deisenroth_AIME_384WELL_LUC_Active: CCTE's 384-well Estrogen Receptor Transactivation Assay with AIME metabolic competence (ERTA luciferase; metabolism positive), Deisenroth Lab (AID 2284030)
# Summary of the method: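 VM7Luc4E2 breast cells were given, for 24 hours, medium pre-incubated for 2 hours with parent chemical (0.002-200 uM, 10 concentrations) and alginate-encapsulated phenobarbital/beta-naphthoflavone-induced rat hepatic S9. Luciferase gain of signal was fitted against 17beta-estradiol; n=4 or more.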
# [4] = molecular target: Estrogen receptor (Homo sapiens) (UniProt P03372); experiment: CCTE_Deisenroth_AIME_384WELL_LUC_Inactive: CCTE's 384-well Estrogen Receptor Transactivation Assay without AIME metabolic competence (ERTA luciferase; metabolism negative), Deisenroth Lab (AID 2284038);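 also: VM7Luc4E2 breast cells given medium preincubated 2 h with S9-free microspheres; hits raise estrogen receptor luciferase signal so potencies reflect agonists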
# Summary of the method: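 Chemicals (10-point series, 0.002 - 200 uM) were incubated 2 hours with alginate-water microsphere lids lacking S9, then the conditioned medium was transferred to VM7Luc4E2 breast cells for 24 hour. Luciferase induction was read by bioluminescence, fitted upward relative to 17beta-estradiol.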
# [5] = TAMU_PeakParms_SingleDonor1434_QT: Texas A&M University (TAMU) 1.5-hr Human Induced Pluripotent Stem Cell (iPSC)-derived Cardiomyocytes Calcium (Ca+2) Flux Assay for Cardiotoxicity: QT (decay-rise ratio) (AID 2284235)
# Summary of the method: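 iPSC-derived cardiomyocytes (single donor 1434) dosed at 0.2, 1, 10, 100 uM final in 0.5% DMSO, 90 min at 37C. Ca2+ flux fluorescence decay/rise ratio; EC05 (5% increase versus DMSO) as POD, excluding beat-arrest and severe-notch data.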
# [6] = molecular target: human CYP1A1, CYP1A1 (gene 1543) (UniProt P04798); experiment: NVS_ADME_hCYP1A1: NovaScreen (NVS) CYP450-related Enzyme Activity (ADME) Assay for human CYP1A1 (AID 2283100)
# Summary of the method: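 Chemicals were first tested in duplicate at 10 uM, and those passing a 30% inhibition threshold were rerun as concentration series topping at 20 uM. Fluorescence read-out of recombinant enzyme turnover after 1 h, relative to acetonitrile.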
# [7] = molecular target: human AMP-activated Protein Kinase, alpha 1 (AMPKa1), PRKAA1 (gene 5562) (UniProt Q13131); experiment: NVS_ENZ_hAMPKa1: NovaScreen (NVS) Enzymatic Assay for human AMP-activated Protein Kinase, alpha 1 (AMPKa1) (AID 2283130)
# Summary of the method: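 Recombinant human AMPKα1 activity was measured cell-free by fluorescent substrate conversion with electrophoretic mobility-shift separation, 1 h after dosing. Duplicate single-point screening was at 25 uM; actives (≥30% inhibition) were retested in concentration-response up to 50 uM.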
# [8] = molecular target: human LYN Proto-Oncogene, Src family Tyrosine Kinase (LynA), LYN (gene 4067) (UniProt P07948); experiment: NVS_ENZ_hLynA: NovaScreen (NVS) Enzymatic Assay for human LYN Proto-Oncogene, Src family Tyrosine Kinase (LynA) (AID 2283173)
# Summary of the method: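 Recombinant kinase with fluorescent substrate; product separated from substrate by electrophoretic mobility shift and read 1 h after dosing. Duplicate screen at 25 uM, then concentration-response up to 50 uM; activity scored as signal loss against DMSO.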
# [9] = molecular target: human Mitogen- and Stress-activated Protein Kinase-1 (Msk1), RPS6KA5 (gene 9252) (UniProt O75582); experiment: NVS_ENZ_hMsk1: NovaScreen (NVS) Enzymatic Assay for human Mitogen- and Stress-activated Protein Kinase-1 (Msk1) (AID 2283187)
# Summary of the method: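 Recombinant kinase with fluorescent substrate; product separated by electrophoretic mobility shift, read 1 h after dosing. Screened in duplicate at 25 uM; hits (e.g. ≥30% inhibition) tested in concentration–response up to 50 uM. DMSO baseline.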
# [10] = molecular target: human Serotonin Transporter (SERT), SLC6A4 (gene 6532) (UniProt P31645); experiment: NVS_TR_hSERT: NovaScreen (NVS) Transporter Assay for human Serotonin Transporter (SERT) (AID 2283372)
# Summary of the method: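 Radioligand binding to native SERT in human platelet membranes, read by filter-based scintillation counting 1 h after dosing. Primary screen in duplicate at 25 uM; actives followed up in concentration series; loss of signal versus DMSO baseline.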
# [11] = molecular target: GAL4 Transcription Factor (Internal Marker), GAL4 (gene 855828) (UniProt P04386); experiment: ATG_GAL4_XSP2: Attagene TRANS-FACTORIAL Multi-Species (XSP2) HepG2 Assay for GAL4 Transcription Factor (Internal Marker) (AID 2283814);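 also: GAL4 reporter mRNA background control in MRTU transfected cells not a receptor target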
# Summary of the method: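 HepG2 cells transiently transfected with GAL4-UAS reporter units, stimulated with 3 nM 6-alpha-fluorotestosterone plus 1.5 nM norgestrel, dosed 24 h. Reporter mRNA by RT-PCR/capillary electrophoresis; gain-of-signal fit versus DMSO, background control.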
# [12] = molecular target: zebrafish Thyroid Hormone Receptor alpha (TRa), thraa (gene 30670) (UniProt Q98867); experiment: ATG_zfTRa_XSP2: Attagene TRANS-FACTORIAL Multi-Species (XSP1) HepG2 Assay for zebrafish Thyroid Hormone Receptor alpha (TRa) (AID 2283832);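 also: actives raise zebrafish TRa-Gal4 reporter transcript above DMSO baseline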
# Summary of the method: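 HepG2 cells transiently transfected with multiplexed GAL4-UAS reporter units expressing chimeric NR-Gal4 proteins; 24 h after dosing, reporter mRNA measured by RT-PCR, FAM labelling, HpaI digestion and capillary electrophoresis; gain of signal versus DMSO baseline.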
# [13] = CCTE_Simmons_MITO_viability: CellTiter-Glo Viability Assessment for CCTE's HepG2 Seahorse XF Respirometric Screening Assay [post-hoc], Simmons Lab (AID 2284007);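 as to AC50: cells exposed to chemical for 90 min before the ATP read; actives lower ATP signal relative to DMSO baseline meaning reduced viability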
# Summary of the method: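 HepG2 cells from the Seahorse XF respirometry run were exposed 90 min to a 7-point series, 125 nM–100 uM final, DMSO vehicle; ATP content then read by luciferase luminescence. Three biological replicates, technical singles; loss of signal fitted versus DMSO.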
# [14] = molecular target: human CYP2C9, CYP2C9 (gene 1559) (UniProt P11712); experiment: NVS_ADME_hCYP2C9: NovaScreen (NVS) CYP450-related Enzyme Activity (ADME) Assay for human CYP2C9 (AID 2283108)
# Summary of the method: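 Fluorescence readout of CYP2C9 activity (SF9-expressed human enzyme) at 0.75 h. The primary screen used 10 uM in duplicate, with concentration-response follow-up for actives; acetonitrile was the negative control.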
# [15] = molecular target: human Casein Kinase 1-delta (CK1D), CSNK1D (gene 1453) (UniProt P48730); experiment: NVS_ENZ_hCK1D: NovaScreen (NVS) Enzymatic Assay for human Casein Kinase 1-delta (CK1D) (AID 2283148)
# Summary of the method: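 Recombinant human CK1-delta, cell-free; fluorescent substrate with electrophoretic mobility-shift separation of product, read 1 h after dosing. Single 25 uM duplicate screen, then concentration-response up to 50 uM; loss of signal vs DMSO.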
# [16] = read-out: Cytochrome P450 3A4 (Homo sapiens) (UniProt P08684); experiment: CLD_CYP3A4_6hr: CellzDirect (CLD) Gene Expression Assay for xenobiotic metabolism (CYP3A4) at 6 hours (AID 2283680)
# Summary of the method: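 Primary human hepatocytes (two donor preparations) dosed; CYP3A4 mRNA harvested at 6 h and quantified by qNPA chemiluminescence. Gain of signal fitted against 0.2% DMSO vehicle; cytotoxicity flagged by phase-contrast morphology.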
# [17] = molecular target: human Insulin Receptor (InsR), INSR (gene 3643) (UniProt P06213); experiment: NVS_ENZ_hInsR: NovaScreen (NVS) Enzymatic Assay for human Insulin Receptor (InsR) (AID 2283168)
# Summary of the method: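 Fluorescent substrate phosphorylation by recombinant kinase, product resolved by electrophoretic mobility shift, read 1 h after dosing. Screened in duplicate at 25 uM; hits (e.g., 30% inhibition) run in concentration-response to 50 uM; DMSO as baseline.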
# [18] = CCTE_Shafer_MEA_dev_LDH: CCTE's Lactate Dehydrogenase Assay for Cytotoxicity in the Neural Network Formation Assay, Shafer Lab (AID 2284068);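 also: exposure for twelve days from plating with re-dosing on DIV 5 and 9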
# Summary of the method: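 Cytotoxicity companion to network-formation recordings: rat cortical neurons received compound over 12 days of development, re-dosed at DIV 5 and 9 feeds. Viability was inferred from LDH enzyme activity relative to DMSO.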
smiles,measurement,setting,value
C=CC(=O)OC,AC50,[1],inconclusive: 25 µM
ClCCCCl,AC50,[2],inconclusive: 5.06 µM
CCCCC(C#N)(Cn1cncn1)c1ccc(Cl)cc1 (stereo unspecified),outcome,[1],inactive
same,AC50,[3],inconclusive: 134 µM
same,AC50,[4],inconclusive: 118 µM
same,AC50,[5],inconclusive: 50 µM
ClCCOCCCl,AC50,[6],inconclusive: 10 µM
same,AC50,[7],inconclusive: 4.96 µM
same,AC50,[8],inconclusive: 0.329 µM
same,AC50,[9],inconclusive: 25 µM
CN(C)C(=S)S,outcome,[2],inactive
CN(C)[C@@H]1C(=O)C(C(N)=O)=C(O)[C@@]2(O)C(=O)C3=C(O)c4c(O)cccc4[C@@](C)(O)[C@H]3[C@H](O)[C@@H]12,AC50,[2],active: 12.6 µM and active: 7.9 µM
same,AC50,[1],inconclusive: 38.5 µM
CC(C)(C)CC(C)(C)c1ccc(O)cc1,AC50,[10],inconclusive: 0.605 µM
same,AC50,[11],inconclusive: 10 µM
same,AC50,[12],inconclusive: 10 µM
same,outcome,[13],inactive
S=C1NCCN1,outcome,[14],inactive
same,AC50,[15],inconclusive: 25 µM
same,AC50,[9],inconclusive: 25 µM
FC(F)C(F)(F)OCC(Cn1cncn1)c1ccc(Cl)cc1Cl (stereo unspecified),AC50,[16],inconclusive: 38.1 µM
same,AC50,[13],active: 16.9 µM
c1ccc(-c2ccccc2)cc1,AC50,[3],active: 88 µM
Oc1cc(Cl)c(Cl)cc1Cl,outcome,[11],inactive
CCNC(=O)NC(=O)C(C#N)=NOC,AC50,[14],inconclusive: 0.129 µM
CC(=NC#N)N(C)Cc1ccc(Cl)nc1,AC50,[17],inconclusive: 25 µM
same,AC50,[18],inconclusive: 0.003 µM
c1ccc(OP(Oc2ccccc2)Oc2ccccc2)cc1,AC50,[3],active: 76.8 µM
same,AC50,[4],active: 75.4 µM
same,outcome,[18],inactive
CC(C)N(C(=O)SCC(Cl)=C(Cl)Cl)C(C)C,AC50,[14],inconclusive: 0.0566 µM
same,AC50,[17],inconclusive: 25 µM
same,AC50,[10],inconclusive: 0.578 µM
CCOP(=S)(OCC)Oc1ccc([N+](=O)[O-])cc1,AC50,[6],active: 3.28 µM
same,AC50,[10],active: 7.25 µM
same,AC50,[18],inconclusive: 10 µM

# Reformatted: results already given
smiles | measurement | setting | value
ClCCOCCCl | AC50 | [9] | inconclusive: 25 µM
c1ccc(OP(Oc2ccccc2)Oc2ccccc2)cc1 | AC50 | [4] | active: 75.4 µM
CC(C)N(C(=O)SCC(Cl)=C(Cl)Cl)C(C)C | AC50 | [14] | inconclusive: 0.0566 µM
